Data as given in PubChem BioAssay AID652243 (Drosophila RNAi Screening Center, 2013).
Purpose: 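Fly regulators of androgen-dependent reporter output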 (primary screen). System: Drosophila S2R+ cells. Reagent: long dsRNA against Drosophila genes. Duration: 72 h (48 h, then 24 h hormone). Challenge: synthetic androgen R1881 at 10 nM for 24 h. Measured: 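Firefly light from an androgen-responsive reporter and Renilla control light per well, raw and unnormalised, for each of two replicates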. Scale: firefly reporter light: higher = more light from androgen-responsive reporter; Renilla control light: higher = more constitutive control signal (cell number, transfection). Rule for the call: 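Across duplicate plates, a knock-down whose log firefly/Renilla ratio shifted a set fold down or up from the GFP/LacZ control mean was a hit; the downward cut appears as both 1.5 and 3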. Calls: active = hit: reporter lowered or raised; inactive = no hit.
The deposit covers about 24,000 reagents; shown is a random part of those with a known target gene and a result. In the full data, 246 (1%) got an active call. 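Plates not normalised; calls are printed but the firefly/Renilla ratio behind them is not deposited; fold cut for lowering reported inconsistently.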 The raw values are shown without normalisation. Entries without a mark were called inactive. The record does not give: the amount of reagent.

target,amplicon,"firefly reporter light, replicate 1","firefly reporter light, replicate 2","Renilla control light, replicate 1","Renilla control light, replicate 2"
CG8031,DRSC16364,79282,37499,7.36e5,5.16e5
Prosbeta4R1,DRSC38933,9.20e5,9.64e5,1.81e6,2.02e6
vnd,DRSC18849,2.02e5,2.49e5,2.19e6,1.84e6
vnd,DRSC22487,4.52e5,7.65e5,1.46e6,2.39e6
vnd,DRSC25390,3.44e5,2.47e5,6.52e5,3.37e5
Gr36c,DRSC02437,1.60e5,1.40e5,1.29e6,1.31e6
Gr36c,DRSC26305,2.73e5,3.37e5,6.10e5,4.81e5
grh,DRSC05680,1.58e5,98197,1.97e5,1.71e5
grh,DRSC05683,24871,74199,1.15e5,1.65e5
grh,DRSC07624,5.41e5,4.35e5,4.75e5,4.27e5
grh,DRSC07625,1.03e5,1.26e5,1.28e6,1.28e6
grh,DRSC25041,4.67e5,5.52e5,6.75e5,7.51e5
grh,DRSC39163,9.13e5,7.82e5,1.34e6,1.05e6
CG7646,DRSC11232,2.80e5,2.54e5,2.30e6,3.17e6
CG6414,DRSC18401,2.16e5,1.79e5,2.53e6,2.39e6
ATPsynbetaL,DRSC10503,1.75e5,2.05e5,1.80e6,1.69e6
ATPsynbetaL,DRSC24354,5.45e5,5.65e5,6.02e5,7.65e5
CG15059,DRSC19633,5.55e5,5.76e5,3.97e6,3.86e6
CG15059,DRSC28667,4.79e5,3.47e5,1.61e6,1.48e6
CG15059,DRSC39001,8.94e5,7.15e5,1.99e6,2.06e6
CG17350,DRSC02611,1.22e5,1.34e5,1.13e6,1.06e6
ttm3,DRSC03736,1.81e5,2.16e5,1.40e6,9.07e5
jus,DRSC23018,6.22e5,7.37e5,8.10e5,8.60e5
jus,DRSC26804,2.11e5,2.14e5,8.09e5,8.98e5
PIG-N,DRSC06837,2.29e5,2.38e5,1.34e6,1.64e6
sosie,DRSC14636,2.85e5,2.32e5,3.03e6,2.84e6
sosie,DRSC21382,6.72e5,6.30e5,2.40e6,2.16e6
sosie,DRSC26930,5.74e5,3.98e5,7.21e5,3.14e5
pcs,DRSC07042,6.25e5,8.03e5,1.80e6,2.16e6
CG43367,DRSC08299,2.82e5,1.97e5,2.72e6,2.07e6
CG43367,DRSC08301,1.05e5,92585,1.12e6,1.17e6
CG43367,DRSC08309,3.28e5,3.80e5,2.62e6,2.12e6
CG43367,DRSC24732,7.91e5,8.50e5,1.14e6,1.16e6
viaf,DRSC10326,9.71e5,8.31e5,1.71e6,1.73e6
BicC,DRSC02005,1.50e5,1.44e5,1.93e6,2.42e6
BicC,DRSC29676,4.31e5,4.83e5,9.61e5,9.61e5
bam,DRSC16907,1.82e5,2.17e5,2.27e6,2.54e6
bam,DRSC39113,3.14e5,6.51e5,1.38e6,2.40e6
CG8814,DRSC00707,7.63e5,9.70e5,3.07e6,2.53e6
CG8814,DRSC25994,4.77e5,5.34e5,8.56e5,8.66e5

Taken from above.
Under “firefly reporter light, replicate 2”, grh [DRSC07625] reads 1.26e5
Under “firefly reporter light, replicate 1”, bam [DRSC16907] shows 1.82e5
vnd [DRSC18849], firefly reporter light, replicate 1: 2.02e5
Under “firefly reporter light, replicate 2”, ttm3 [DRSC03736] reads 2.16e5
For “Renilla control light, replicate 1”, CG43367 [DRSC08299] is entered as 2.72e6
CG8814 [DRSC00707], Renilla control light, replicate 2 = 2.53e6
